The list shows a part of the results. Most entries show no effect beyond the scatter of the controls.

The chains behind the UniProt entries cited, without tags or fusion partners. Where a name states a change or a piece, a line headed by the entry shows the natural chain unless it says otherwise.
UniProt Q8TB52: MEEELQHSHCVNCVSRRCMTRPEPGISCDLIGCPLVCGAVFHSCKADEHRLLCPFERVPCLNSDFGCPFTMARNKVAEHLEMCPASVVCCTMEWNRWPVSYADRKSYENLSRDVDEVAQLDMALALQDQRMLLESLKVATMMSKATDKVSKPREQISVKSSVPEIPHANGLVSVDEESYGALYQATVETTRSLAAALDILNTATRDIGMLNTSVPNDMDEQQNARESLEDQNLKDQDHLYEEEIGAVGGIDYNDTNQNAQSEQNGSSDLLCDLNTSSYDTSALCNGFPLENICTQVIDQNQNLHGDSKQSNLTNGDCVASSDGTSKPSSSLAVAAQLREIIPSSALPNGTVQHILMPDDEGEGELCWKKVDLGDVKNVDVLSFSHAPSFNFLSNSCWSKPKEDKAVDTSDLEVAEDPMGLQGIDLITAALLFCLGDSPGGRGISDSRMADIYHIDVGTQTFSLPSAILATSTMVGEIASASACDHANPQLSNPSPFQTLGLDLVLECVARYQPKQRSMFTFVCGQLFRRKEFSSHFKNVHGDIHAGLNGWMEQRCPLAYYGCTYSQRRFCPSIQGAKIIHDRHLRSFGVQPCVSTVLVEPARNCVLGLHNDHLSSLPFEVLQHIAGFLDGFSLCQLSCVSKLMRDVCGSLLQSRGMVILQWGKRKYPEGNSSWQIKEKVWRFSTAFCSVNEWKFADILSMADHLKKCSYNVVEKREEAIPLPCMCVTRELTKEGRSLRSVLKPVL
UniProt Q8WUW1: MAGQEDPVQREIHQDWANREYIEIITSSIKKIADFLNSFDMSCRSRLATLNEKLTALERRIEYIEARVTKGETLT
UniProt Q92558: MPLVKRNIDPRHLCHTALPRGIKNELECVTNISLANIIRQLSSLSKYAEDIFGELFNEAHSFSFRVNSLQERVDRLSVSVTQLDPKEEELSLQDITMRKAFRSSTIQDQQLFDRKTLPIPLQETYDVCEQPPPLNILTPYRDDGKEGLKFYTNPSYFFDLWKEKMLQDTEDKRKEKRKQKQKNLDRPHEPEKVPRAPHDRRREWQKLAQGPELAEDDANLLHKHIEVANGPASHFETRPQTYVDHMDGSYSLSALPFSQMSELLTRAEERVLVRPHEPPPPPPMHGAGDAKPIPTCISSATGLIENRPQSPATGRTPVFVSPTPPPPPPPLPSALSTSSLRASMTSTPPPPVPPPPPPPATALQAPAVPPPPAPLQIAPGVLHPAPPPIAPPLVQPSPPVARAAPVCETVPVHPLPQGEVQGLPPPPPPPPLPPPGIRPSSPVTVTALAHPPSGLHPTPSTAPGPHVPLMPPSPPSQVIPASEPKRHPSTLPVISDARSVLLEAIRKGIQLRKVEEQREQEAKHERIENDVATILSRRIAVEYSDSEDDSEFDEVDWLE
UniProt Q8WWV3: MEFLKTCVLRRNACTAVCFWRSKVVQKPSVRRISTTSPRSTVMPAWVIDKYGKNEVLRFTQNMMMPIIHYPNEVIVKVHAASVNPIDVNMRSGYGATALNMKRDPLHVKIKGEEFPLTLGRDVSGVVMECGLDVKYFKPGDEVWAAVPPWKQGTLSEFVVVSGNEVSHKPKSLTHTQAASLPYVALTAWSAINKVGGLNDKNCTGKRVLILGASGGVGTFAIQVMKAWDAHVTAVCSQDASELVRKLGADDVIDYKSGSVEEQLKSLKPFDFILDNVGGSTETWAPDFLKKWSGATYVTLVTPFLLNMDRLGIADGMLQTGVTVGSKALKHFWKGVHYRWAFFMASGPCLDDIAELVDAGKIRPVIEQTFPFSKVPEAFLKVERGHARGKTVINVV
UniProt Q8WWM7: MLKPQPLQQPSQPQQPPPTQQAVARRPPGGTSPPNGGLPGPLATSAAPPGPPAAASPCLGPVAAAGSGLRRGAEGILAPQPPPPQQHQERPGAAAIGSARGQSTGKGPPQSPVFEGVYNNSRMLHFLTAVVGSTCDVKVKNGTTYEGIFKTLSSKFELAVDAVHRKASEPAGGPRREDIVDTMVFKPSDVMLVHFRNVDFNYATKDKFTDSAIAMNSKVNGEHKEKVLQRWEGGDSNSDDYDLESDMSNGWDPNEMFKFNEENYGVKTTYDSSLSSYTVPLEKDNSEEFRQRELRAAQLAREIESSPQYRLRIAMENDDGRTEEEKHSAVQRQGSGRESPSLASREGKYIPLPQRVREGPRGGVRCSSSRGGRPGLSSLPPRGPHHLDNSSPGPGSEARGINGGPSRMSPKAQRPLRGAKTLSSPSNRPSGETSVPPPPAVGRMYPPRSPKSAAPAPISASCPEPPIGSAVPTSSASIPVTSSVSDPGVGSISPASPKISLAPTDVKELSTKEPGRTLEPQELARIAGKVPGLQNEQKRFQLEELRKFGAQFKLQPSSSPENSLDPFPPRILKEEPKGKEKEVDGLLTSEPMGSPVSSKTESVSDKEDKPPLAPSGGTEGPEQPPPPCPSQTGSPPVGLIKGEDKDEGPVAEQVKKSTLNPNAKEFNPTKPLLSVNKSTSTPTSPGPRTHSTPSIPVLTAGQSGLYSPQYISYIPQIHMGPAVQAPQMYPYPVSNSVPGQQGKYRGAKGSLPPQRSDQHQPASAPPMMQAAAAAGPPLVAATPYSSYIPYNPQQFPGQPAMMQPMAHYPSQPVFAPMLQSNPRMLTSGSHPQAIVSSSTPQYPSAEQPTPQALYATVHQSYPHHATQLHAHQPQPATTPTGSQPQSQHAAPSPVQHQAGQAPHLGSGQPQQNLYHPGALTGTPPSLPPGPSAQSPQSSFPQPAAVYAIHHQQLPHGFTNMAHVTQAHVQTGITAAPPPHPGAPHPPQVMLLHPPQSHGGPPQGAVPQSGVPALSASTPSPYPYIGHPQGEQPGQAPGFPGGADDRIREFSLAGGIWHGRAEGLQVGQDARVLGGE
UniProt Q8WXF0: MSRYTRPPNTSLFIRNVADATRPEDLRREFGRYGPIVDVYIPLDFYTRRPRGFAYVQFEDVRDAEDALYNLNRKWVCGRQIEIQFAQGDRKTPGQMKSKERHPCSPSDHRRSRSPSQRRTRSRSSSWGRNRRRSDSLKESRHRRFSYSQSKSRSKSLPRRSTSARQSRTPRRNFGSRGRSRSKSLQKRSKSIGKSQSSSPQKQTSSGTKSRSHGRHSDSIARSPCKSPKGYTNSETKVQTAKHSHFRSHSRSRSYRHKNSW
UniProt Q8WXD5: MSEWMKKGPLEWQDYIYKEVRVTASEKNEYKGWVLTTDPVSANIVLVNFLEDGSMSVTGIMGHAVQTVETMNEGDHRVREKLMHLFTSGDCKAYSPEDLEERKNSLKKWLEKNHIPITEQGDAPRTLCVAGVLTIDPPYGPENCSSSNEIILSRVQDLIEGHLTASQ
UniProt Q8WVK7: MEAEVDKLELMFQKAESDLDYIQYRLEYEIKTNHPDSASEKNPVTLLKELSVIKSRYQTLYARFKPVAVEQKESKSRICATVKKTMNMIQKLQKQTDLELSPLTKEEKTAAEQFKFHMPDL
UniProt Q8TAP8: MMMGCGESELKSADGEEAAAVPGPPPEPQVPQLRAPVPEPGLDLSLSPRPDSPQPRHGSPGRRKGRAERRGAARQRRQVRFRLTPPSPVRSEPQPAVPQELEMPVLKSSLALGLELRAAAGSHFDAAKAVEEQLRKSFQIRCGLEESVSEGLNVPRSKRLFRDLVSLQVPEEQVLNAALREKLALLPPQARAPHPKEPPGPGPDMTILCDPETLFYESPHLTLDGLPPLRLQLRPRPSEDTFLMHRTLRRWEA
UniProt Q92575: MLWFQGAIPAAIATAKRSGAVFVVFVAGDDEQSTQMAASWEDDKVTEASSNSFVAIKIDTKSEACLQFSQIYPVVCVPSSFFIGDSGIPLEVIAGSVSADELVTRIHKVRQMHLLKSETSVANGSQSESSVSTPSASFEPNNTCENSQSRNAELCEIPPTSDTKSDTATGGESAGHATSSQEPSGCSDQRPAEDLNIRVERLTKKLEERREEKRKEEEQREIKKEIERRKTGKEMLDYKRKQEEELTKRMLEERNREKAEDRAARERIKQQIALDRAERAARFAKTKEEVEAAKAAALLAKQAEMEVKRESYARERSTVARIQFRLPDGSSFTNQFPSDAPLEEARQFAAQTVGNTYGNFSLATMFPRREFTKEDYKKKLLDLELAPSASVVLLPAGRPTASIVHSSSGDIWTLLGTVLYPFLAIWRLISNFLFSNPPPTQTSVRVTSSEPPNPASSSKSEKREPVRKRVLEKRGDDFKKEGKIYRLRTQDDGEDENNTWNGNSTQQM
UniProt Q8WW01: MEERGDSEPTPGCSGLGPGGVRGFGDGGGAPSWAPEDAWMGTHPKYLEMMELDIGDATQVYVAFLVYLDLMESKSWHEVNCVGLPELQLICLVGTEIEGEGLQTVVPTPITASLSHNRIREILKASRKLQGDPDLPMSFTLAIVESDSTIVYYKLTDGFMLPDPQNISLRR
UniProt Q8WYN0: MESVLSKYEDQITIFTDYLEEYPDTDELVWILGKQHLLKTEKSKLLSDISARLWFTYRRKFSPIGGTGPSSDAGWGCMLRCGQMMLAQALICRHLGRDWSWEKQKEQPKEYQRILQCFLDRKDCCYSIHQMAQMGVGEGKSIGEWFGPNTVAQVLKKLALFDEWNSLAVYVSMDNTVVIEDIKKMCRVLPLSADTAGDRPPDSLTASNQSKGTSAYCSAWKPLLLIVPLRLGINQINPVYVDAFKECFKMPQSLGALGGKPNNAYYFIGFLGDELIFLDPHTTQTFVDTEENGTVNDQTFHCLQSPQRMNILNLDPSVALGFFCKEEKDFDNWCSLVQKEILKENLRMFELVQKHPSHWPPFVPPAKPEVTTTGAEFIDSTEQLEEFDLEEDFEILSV
UniProt Q8TDR0: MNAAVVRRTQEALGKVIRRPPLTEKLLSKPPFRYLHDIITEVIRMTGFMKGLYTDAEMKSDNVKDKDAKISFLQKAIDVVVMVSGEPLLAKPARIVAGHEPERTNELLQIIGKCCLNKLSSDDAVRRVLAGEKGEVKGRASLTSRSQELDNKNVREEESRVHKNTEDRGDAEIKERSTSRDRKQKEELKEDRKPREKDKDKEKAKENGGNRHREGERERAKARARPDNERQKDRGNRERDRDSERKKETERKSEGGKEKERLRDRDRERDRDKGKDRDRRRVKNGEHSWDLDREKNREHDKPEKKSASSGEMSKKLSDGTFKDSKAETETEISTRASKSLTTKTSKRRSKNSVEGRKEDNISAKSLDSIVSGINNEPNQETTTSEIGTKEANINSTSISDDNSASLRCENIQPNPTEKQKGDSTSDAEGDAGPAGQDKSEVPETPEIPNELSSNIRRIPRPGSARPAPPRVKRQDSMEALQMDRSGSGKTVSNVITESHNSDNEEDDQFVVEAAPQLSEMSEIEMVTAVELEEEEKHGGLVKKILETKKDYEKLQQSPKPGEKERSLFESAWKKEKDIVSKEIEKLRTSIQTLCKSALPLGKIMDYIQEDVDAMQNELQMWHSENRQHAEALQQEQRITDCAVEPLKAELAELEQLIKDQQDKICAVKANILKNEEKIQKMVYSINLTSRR
UniProt Q8TCF1: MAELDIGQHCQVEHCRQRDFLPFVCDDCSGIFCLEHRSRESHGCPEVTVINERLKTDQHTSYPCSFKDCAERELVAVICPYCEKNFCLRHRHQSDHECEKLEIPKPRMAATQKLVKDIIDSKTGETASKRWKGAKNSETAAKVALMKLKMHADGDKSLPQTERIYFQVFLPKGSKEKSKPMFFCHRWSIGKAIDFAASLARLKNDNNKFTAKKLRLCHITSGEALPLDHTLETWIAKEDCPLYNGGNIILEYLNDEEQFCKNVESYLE
UniProt Q8TF68: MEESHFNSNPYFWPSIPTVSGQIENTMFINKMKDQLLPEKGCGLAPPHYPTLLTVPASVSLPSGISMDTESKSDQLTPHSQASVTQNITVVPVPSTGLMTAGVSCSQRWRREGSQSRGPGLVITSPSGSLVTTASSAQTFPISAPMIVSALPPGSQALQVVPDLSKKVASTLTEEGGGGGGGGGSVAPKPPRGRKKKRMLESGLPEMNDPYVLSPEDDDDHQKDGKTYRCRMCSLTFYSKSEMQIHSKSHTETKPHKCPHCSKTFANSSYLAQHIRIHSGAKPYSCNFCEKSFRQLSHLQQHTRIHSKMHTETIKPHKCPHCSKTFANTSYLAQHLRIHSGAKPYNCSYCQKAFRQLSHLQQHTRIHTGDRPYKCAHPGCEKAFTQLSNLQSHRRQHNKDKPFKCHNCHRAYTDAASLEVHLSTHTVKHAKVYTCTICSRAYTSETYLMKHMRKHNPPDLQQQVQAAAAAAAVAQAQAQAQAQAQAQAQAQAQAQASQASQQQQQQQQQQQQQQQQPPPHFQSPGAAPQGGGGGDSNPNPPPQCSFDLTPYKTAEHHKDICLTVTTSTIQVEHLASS
UniProt Q8TBF4: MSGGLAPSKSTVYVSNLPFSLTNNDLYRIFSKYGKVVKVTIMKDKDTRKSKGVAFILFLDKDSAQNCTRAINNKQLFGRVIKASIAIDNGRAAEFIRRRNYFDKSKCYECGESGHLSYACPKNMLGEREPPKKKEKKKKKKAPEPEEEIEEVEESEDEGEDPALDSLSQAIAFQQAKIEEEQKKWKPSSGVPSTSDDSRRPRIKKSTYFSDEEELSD

Compound in this experiment: Cc1nc(Nc2ncc(C(=O)Nc3c(C)cccc3Cl)s2)cc(N2CCN(CCO)CC2)n1 [dasatinib]
Kind of experiment: log2 fold change of tryptic peptide abundance, ligand vs vehicle (limited proteolysis) (log2 ratio); higher = more trypsin-susceptible (destabilized). The conditions noted are these: ligand concentration: 5 uM; sample: K562 cleared lysate.
With “RAB3IL1 (peptide sequence: YIQQGLVR, peptide start residue: 346) (UniProt Q8TBN0)”, the log2 fold change is -0.124.
Under “FBXO30 (peptide sequence: KSYENLSR, peptide start residue: 105) (UniProt Q8TB52)” stands 0.434.
Regarding “UniProt Q8WVE0 (peptide sequence: MCTFVPR, peptide start residue: 185)”, the log2 fold change was determined as 0.144.
With “UniProt Q8WUW1 (peptide sequence: EYIEIITSSIKK, peptide start residue: 20)” the figure was -0.479; with “WASF1 (peptide sequence: SVLLEAIRK, peptide start residue: 499) (UniProt Q92558)”, 0.106; with “RTN4IP1 (peptide sequence: VHAASVNPIDVNMR, peptide start residue: 78) (UniProt Q8WWV3)”, -0.228.
With “UniProt Q8TCY9 (peptide sequence: VSSTDSDSFVKR, peptide start residue: 419)”, the log2 fold change came out at 0.488.
With “ATXN2L (peptide sequence: MYPPRSPK, peptide start residue: 444) (UniProt Q8WWM7)” the figure was -0.198; with “UniProt Q8WXF0 (peptide sequence: GFAYVQFEDVR, peptide start residue: 52)”, -0.0675; with “GEMIN6 (peptide sequence: KGPLEWQDYIYK, peptide start residue: 7) (UniProt Q8WXD5)”, 0.412.
For “THAP3 (peptide sequence: EWVLNIGR, peptide start residue: 36) (UniProt Q8WTV1)”, the log2 fold change worked out at 0.121.
With “UniProt Q8WVK7 (peptide sequence: QTDLELSPLTKEEK, peptide start residue: 95)” the figure was 0.166; with “UniProt Q8TAP9 (peptide sequence: DGYGSPHHTPPYGPR, peptide start residue: 43)”, -0.0952; with “LMBR1 (peptide sequence: DSETAKPSVNGHQK, peptide start residue: 475) (UniProt Q8WVP7)”, 0.731.
On to “UniProt Q8WVT3 (peptide sequence: YFQDVEK, peptide start residue: 602)”, for which the log2 fold change was -0.151.
Under “PPP1R35 (peptide sequence: LQLRPRPSEDTFLMHR, peptide start residue: 231) (UniProt Q8TAP8)” stands -0.293; under “SHKBP1 (peptide sequence: RRGGGSFVER, peptide start residue: 657) (UniProt Q8TBC3)”, -0.185; under “UBXN4 (peptide sequence: EMLDYKR, peptide start residue: 234) (UniProt Q92575)”, 0.235.
Under “TRUB1 (peptide sequence: GVLVVGIGSGTK, peptide start residue: 126) (UniProt Q8WWH5)” stands -0.353; under “TSEN15 (peptide sequence: LTDGFMLPDPQNISLRR, peptide start residue: 155) (UniProt Q8WW01)”, 0.0164; under “SNIP1 (peptide sequence: YSEPPEAR, peptide start residue: 246) (UniProt Q8TAD8)”, 0.304.
With “PDCD6IP (peptide sequence: KTSEVDLAKPLVK, peptide start residue: 11) (UniProt Q8WUM4)” the figure was -0.14.
Regarding “FAM76A (peptide sequence: AALYACTKCHQR, peptide start residue: 2) (UniProt Q8TAV0)”, the log2 fold change was found to be 0.525.
Take “ATG4A (peptide sequence: SIGEWFGPNTVAQVLKK, peptide start residue: 141) (UniProt Q8WYN0)”: the log2 fold change was determined as 0.873.
With “TRAF3IP1 (peptide sequence: EHDKPEKK, peptide start residue: 298) (UniProt Q8TDR0)” the figure was 0.75; with “TMEM263 (peptide sequence: VTGGIFSVTK, peptide start residue: 38) (UniProt Q8WUH6)”, -0.151.
For “ZFAND1 (peptide sequence: LKMHADGDK, peptide start residue: 148) (UniProt Q8TCF1)”, the log2 fold change is -0.708.
For “ZNF384 (peptide sequence: MKDQLLPEK, peptide start residue: 32) (UniProt Q8TF68)”, the log2 fold change is -0.00927.
“ZCRB1 (peptide sequence: KWKPSSGVPSTSDDSR, peptide start residue: 184) (UniProt Q8TBF4)”: the log2 fold change was -0.209.

Source of the values: the supplement of paper PMC12819154, “High-throughput peptide-centric local stability assay extends protein–ligand identification to membrane proteins, tissues and bacteria” (Nature Structural & Molecular Biology, 2025).
